The values below come from article PMC11770318, “Isolation and characterization of a β-galactosidase from Lactobacillus helveticus for industrial processing” (JDS Communications, 2024).

By UniProt entry, the sequences of proteins in these tests, tags left out.
UniProt Q7WTB4: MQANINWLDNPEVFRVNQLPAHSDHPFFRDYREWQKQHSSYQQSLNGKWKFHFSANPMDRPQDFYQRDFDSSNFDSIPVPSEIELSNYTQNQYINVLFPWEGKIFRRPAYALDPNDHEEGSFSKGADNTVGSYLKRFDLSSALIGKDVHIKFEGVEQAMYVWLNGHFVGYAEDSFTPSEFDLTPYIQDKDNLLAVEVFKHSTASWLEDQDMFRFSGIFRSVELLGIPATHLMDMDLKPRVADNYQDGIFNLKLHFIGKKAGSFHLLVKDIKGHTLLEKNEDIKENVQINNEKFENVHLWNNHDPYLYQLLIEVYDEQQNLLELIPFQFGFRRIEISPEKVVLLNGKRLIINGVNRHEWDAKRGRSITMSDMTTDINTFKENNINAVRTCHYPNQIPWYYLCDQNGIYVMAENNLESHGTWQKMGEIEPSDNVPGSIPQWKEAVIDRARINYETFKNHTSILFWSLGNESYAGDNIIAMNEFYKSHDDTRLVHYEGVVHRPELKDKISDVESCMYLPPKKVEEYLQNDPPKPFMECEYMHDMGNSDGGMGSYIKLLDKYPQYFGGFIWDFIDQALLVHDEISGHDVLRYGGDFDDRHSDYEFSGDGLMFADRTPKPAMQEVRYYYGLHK

The assay has as its target β-galactosidase large subunit from Lactobacillus helveticus OSU-PECh-4A (Lactobacillus helveticus OSU-PECh-4A (endogenous)) (UniProt Q7WTB4). The experiment in a line: native gel or EMSA; endogenous enzyme co-purified from the intracellular extract (100 kDa diafiltration, SEC in 50 mM Tris-HCl with 2 mM MgCl2, pH 7.0); native PAGE and SDS-PAGE on 4% to 10% gel, Coomassie stained; subunits identified by LC-MS (ESI-TRAP). In general terms: A gel shift assay detects complexes by their altered migration in electrophoresis.

Results are given in words; binding and its absence hold for the method and conditions named. Some binding calls cover weakened binding; strength is not graded here.

B1: β-galactosidase small subunit from Lactobacillus helveticus OSU-PECh-4A (enzyme, UniProt Q7WTB3 1-318)
chain: MDYTNNQLHIIYGDATLGVNGKDFQYIFSYERGGLESLKVHGKEWLYRVPTPTFWRATTDNDRGSGFNLKAAQWLGADMFTKCTDIHLKVDRHDFAELPIAPFNNKFSNHEYAKSAEISFTYQTLTTPATNAKIIYNIDDVGHIKVTMRYYGKKGLPPLPVIGIRLIMPTAATGFDYEGLSGETYPDRMAGAKEGKFHIDGLPVTEYLVPQENGMHMQTKKLTINRETTQNNVDRTNEKFSLSIQQAEKPFNFSCLPYTAEELENATHIEELPLVRRTVLVIAGAVRGVGGIDSWGTDVESAYHINPELDHEFSFILN
As for B1, the binding entry is “binds”.
